# Source: publication PMC2997060
# Protein sequences, listed by entry. Tags and fused reporters are not part of them.
# UniProt P35222: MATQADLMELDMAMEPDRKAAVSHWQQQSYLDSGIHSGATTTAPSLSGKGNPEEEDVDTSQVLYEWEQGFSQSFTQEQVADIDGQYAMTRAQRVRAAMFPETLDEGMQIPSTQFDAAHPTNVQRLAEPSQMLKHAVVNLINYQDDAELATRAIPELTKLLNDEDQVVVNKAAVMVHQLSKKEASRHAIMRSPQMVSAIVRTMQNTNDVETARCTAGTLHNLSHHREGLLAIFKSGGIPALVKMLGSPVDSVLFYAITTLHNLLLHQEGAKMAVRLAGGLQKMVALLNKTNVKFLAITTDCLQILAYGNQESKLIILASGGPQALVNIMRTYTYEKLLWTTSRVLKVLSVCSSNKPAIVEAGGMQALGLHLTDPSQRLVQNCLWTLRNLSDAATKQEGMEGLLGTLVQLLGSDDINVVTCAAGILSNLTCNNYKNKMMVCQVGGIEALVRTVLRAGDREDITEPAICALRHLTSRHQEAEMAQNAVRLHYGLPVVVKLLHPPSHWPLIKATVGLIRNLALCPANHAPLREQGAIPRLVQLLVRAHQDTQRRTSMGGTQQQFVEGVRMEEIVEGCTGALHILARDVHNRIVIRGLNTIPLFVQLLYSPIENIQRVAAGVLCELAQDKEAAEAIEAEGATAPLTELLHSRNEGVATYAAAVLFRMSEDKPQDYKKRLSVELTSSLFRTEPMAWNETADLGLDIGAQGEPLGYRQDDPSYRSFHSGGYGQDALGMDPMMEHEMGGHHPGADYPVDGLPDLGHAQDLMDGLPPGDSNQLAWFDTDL
# These are yes or no findings as the source states them, for the method shown. Binding seen in cells or lysates may run through a third protein. Some results given as binding are weak or reduced against the parent protein; the word gives no strength. For some assays here: Sequences can lack the tags named with a protein.
# What was measured:
# [1] = target: T1, endogenous Desmoglein 3 (Dsg3) (human (endogenous in A431 and HaCaT)) (UniProt P32926); experiment: co-IP; RIPA lysates of A431 stable lines (empty vector control V and hDsg3.myc D3); antibodies (anti-myc, anti-Dsg3 5H10 or anti-E-cadherin HECD-1) coupled to Dynabeads, overnight at 4°C; Western blot
# T1 sequence: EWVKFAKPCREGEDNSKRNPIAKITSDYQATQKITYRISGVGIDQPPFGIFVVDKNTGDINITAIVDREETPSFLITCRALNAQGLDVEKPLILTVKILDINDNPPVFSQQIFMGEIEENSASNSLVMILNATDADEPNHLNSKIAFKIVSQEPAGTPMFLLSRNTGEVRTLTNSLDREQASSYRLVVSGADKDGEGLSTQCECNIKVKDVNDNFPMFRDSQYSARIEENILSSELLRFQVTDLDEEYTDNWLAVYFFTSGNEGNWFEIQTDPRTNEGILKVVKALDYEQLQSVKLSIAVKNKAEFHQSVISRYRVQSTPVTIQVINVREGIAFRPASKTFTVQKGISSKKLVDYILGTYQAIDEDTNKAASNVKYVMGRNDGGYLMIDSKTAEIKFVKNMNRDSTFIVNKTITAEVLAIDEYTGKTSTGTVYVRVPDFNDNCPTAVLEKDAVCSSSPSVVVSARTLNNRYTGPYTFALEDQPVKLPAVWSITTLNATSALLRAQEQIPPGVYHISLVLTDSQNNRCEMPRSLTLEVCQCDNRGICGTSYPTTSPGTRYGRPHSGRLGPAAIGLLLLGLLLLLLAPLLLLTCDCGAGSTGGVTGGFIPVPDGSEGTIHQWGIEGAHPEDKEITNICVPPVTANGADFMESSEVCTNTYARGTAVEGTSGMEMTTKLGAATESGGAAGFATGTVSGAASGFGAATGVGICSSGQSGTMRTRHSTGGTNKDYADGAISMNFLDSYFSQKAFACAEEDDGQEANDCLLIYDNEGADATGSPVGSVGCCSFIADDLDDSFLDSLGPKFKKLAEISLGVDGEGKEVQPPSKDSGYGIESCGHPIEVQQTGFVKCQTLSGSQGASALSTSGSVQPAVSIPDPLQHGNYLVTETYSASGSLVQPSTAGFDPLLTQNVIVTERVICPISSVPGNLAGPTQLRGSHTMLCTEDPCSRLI
# [2] = target: T2, full length human Dsg3 tagged with the c-myc epitope (hDsg3.myc) (human) (UniProt P32926); experiment: as above
# T2 sequence: T1 sequence
substance,measurement,setting,value
β-catenin (from UniProt P35222 1-781),binding,[1],binds
same,binding,[2],binds
